# Not every detail of the peptide structures is certain; ends, links or a residue may be inferred. Marks after values point to notes of the source that are not given here. Ends that are not written are not given here.
# Tested on: hyperlipidemic rats
# Test: Serum lipid levels in hyperlipidemic rat model after oral gavage
# Type: in vivo, Sprague-Dawley (SD) rats
# Conditions: after 4 weeks of oral gavage
# Experimental: After 1-2 weeks of feeding the high-fat diet to the modeling group, blood was collected from the blank control group and the modeling group without fasting (from the inner canthus or tail). Serum was separated as soon as possible after blood collection, and serum levels of Total Cholesterol (TC), Triglycerides (TG), Low-Density Lipoprotein Cholesterol (LDL-C), and High-Density Lipoprotein Cholesterol (HDL-C) were measured. The modeling group was randomly divided into 3 groups (model control group, cholesterol-lowering peptide group, lovastatin control group). No significant differences in TC, TG, LDL-C, and HDL-C were observed among these groups.
# All rats had free access to water.
substance,measurement,setting,value
FFFPF [FFFPF],serum HDL-C levels compared with the model control group,P<0.01,increased
same,"serum TG, TC, and LDL-C compared with the model control group",P<0.01,significantly reduced
same,High-Density Lipoprotein Cholesterol (HDL-C),"serum, high-fat diet rats",0.52**
same,Low-Density Lipoprotein Cholesterol (LDL-C),"serum, high-fat diet rats",0.38**
same,Total Cholesterol (TC),"serum, high-fat diet rats",3.19**
same,Triglycerides (TG),"serum, high-fat diet rats",1.01**

# — patent US20260078145A1, “Polypeptides having cholesterol-lowering function in soybean protein hydrolysate, preparation method thereof, and uses thereof” (WUHAN ZHENFU INNOVATION BIOPHARMACEUTICAL CO., LTD, priority 2023, published 2026)
